Test results: the supplement of paper PMC8616043
Where a name gives a salt, the structure may show the parent alone. The list shows a part of the results. This data set is noisy: repeats of one test often differ as much as different tests do.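 The cells are human U-2 OS cells that stably carry a GFP sensor with a nuclear import signal and a classical export signal. They were transfected to make PR50, a 50-repeat proline–arginine dipeptide protein from the ALS/FTD gene C9ORF72. Each well's nuclear-minus-cytoplasm GFP signal was scaled from in-plate DMSO (low) to PR-only wells (high), then scored against the other test wells on the plate; compounds scoring well below zero were called hits that reverse the PR effect.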

These molecules were tested on U-2 OS NCT-C biosensor cells expressing PR50 (assay: Z-score of normalised NCT-C biosensor translocation index in PR50-expressing cells; higher = more nuclear biosensor (more disrupted nuclear export)). Details: 3 µM; 24 h.
In the case of NC[C@@H]1O[C@H](O[C@H]2[C@@H](O)[C@H](O[C@@H]3[C@@H](O)[C@H](N)C[C@H](N)[C@H]3O[C@H]3O[C@H](CO)[C@@H](O)[C@H](O)[C@H]3N)O[C@@H]2CO)[C@H](N)[C@@H](O)[C@@H]1O [Paromomycin Sulfate], the Z-score is reported as inactive: 0.0778.
In the case of NC[C@@H]1O[C@H](O[C@H]2[C@@H](O)[C@H](O[C@@H]3[C@@H](O)[C@H](N)C[C@H](N)[C@H]3O[C@H]3O[C@H](CO)[C@@H](O)[C@H](O)[C@H]3N)O[C@@H]2CO)[C@H](N)[C@@H](O)[C@@H]1O [Paromomycin sulfate], the Z-score is reported as inactive: -0.232.
In the case of O=C1N=C(O)CN1N=Cc1ccc(-c2ccc([N+](=O)[O-])cc2)o1 [Dantrolene·Na], the Z-score is reported as inactive: -0.0636.
For C[C@@H](O)[C@H]1C(=O)N2C(C(=O)O)=C(S[C@@H]3CN[C@H](CNS(N)(=O)=O)C3)[C@H](C)[C@H]12 [Doripenem], the Z-score was inactive: 0.125.
CC(C)(C#N)c1cc(Cn2cncn2)cc(C(C)(C)C#N)c1 [Anastrozole] was tested, and the Z-score was inactive: -0.102.
For CC(=O)c1ccc2c(c1)N(CCCN(C)C)c1ccccc1S2 [Acepromazine maleate], the Z-score was inactive: -0.736.
With CN(C)CCOC(C)(c1ccccc1)c1ccccn1 (stereo unspecified) [Doxylamine succinate salt] the Z-score was inactive: 0.697.
With Oc1cc(O)c2c(c1)O[C@H](c1cc(O)c(O)c(O)c1)[C@H](O)C2 [Epigallocatechin] the Z-score was inactive: 0.339.
With Nc1ccn([C@H]2CC[C@@H](CO)O2)c(=O)n1 [2',3'-  dideoxycytidine] the Z-score was inactive: 0.7.
With Nc1ccn([C@H]2CC[C@@H](CO)O2)c(=O)n1 [Zalcitabine (2',3'-Dideoxycytidine)] the Z-score was inactive: 0.375.
In the case of O=C(Nc1ccccc1C(=O)NC1CCCCNC1=O)c1cc2ccccc2s1 (stereo unspecified), the Z-score is reported as inactive: -0.473.
CNC[C@H](O)c1ccc(O)c(O)c1 [(-)-Epinephrine (+)-bitartrate] was tested, and the Z-score was inactive: -0.732.
CN1CCN(CCCN2c3ccccc3Sc3ccc(C(F)(F)F)cc32)CC1 [Trifluoperazine· HCl] was tested, and the Z-score was inactive: -0.118.
In the case of CN1CCN(CCCN2c3ccccc3Sc3ccc(C(F)(F)F)cc32)CC1 [Trifluoperazine dihydrochloride], the Z-score is reported as inactive: -0.578.
COc1ccc(OC)c(C(O)CNC(=O)CN)c1 (stereo unspecified) [Midodrine·HCl] was tested, and the Z-score was inactive: -0.121.
CC(S)C(=O)NCC(=O)O (stereo unspecified) [Tiopronin] was tested, and the Z-score was inactive: -0.818.
CC[C@H](C)[C@H](N)C1=N[C@H](C(=O)N[C@@H](CC(C)C)C(=O)N[C@H](CCC(=O)O)C(=O)N[C@H](C(=O)N[C@H]2CCCCNC(=O)[C@H](CC(N)=O)NC(=O)[C@@H](CC(=O)O)NC(=O)[C@H](Cc3cnc[nH]3)NC(=O)[C@@H](Cc3ccccc3)NC(=O)[C@H]([C@@H](C)CC)NC(=O)[C@@H](CCCN)NC2=O)[C@@H](C)CC)CS1 [Bacitracin] was tested, and the Z-score was inactive: -0.196.
O=C(CCc1ccc(O)cc1)c1c(O)cc(O)cc1O [Phloretin] was tested, and the Z-score was inactive: -0.427.
In the case of Cc1cn(CCN2CCN(c3ccccc3-c3cc(C#N)cc(C(=O)NCCCN4CCCC4)c3)CC2)c2ccccc12, the Z-score is reported as inactive: -1.09.
In the case of OC(CNCC(O)C1CCc2cc(F)ccc2O1)C1CCc2cc(F)ccc2O1 (stereo unspecified) [Nebivolol·HCl], the Z-score is reported as inactive: -0.563.
For O=C(Nc1ccccc1-c1cn2c(CN3CCNCC3)csc2n1)c1cnc2ccccc2n1, the Z-score was inactive: -1.69.
CC(=O)NCCCS(=O)(=O)O [Acamprosate calcium] was tested, and the Z-score was inactive: 0.214.
With COc1ccc2c(c1OC)C(=O)O[C@@H]2[C@H]1c2c(cc3c(c2OC)OCO3)CCN1C (racemic) [(±)-Noscapine] the Z-score was inactive: 1.47.
In the case of COc1ccc2c(c1OC)C(=O)O[C@@H]2[C@H]1c2c(cc3c(c2OC)OCO3)CCN1C [Noscapine hydrochloride], the Z-score is reported as inactive: -0.906.
With CCCCCCCCCCCCCCCC(=O)OC(CC(=O)O)C[N+](C)(C)C (racemic) [Palmitoyl-DL- Carnitine chloride] the Z-score was inactive: 0.179.
For CN(C)CC(=O)Nc1ccc2[nH]c(=O)c3ccccc3c2c1, the Z-score was inactive: -1.01.
O=C(CCc1ccc(O)cc1)c1c(O)cc(O)cc1OC1OC(CO)C(O)C(O)C1O (stereo unspecified) [Phlorizine] was tested, and the Z-score was inactive: 0.461.
In the case of C=C[C@@](C)(O)CC[C@H]1C(=C)CC[C@H]2C(C)(C)CCC[C@]12C [Manool], the Z-score is reported as inactive: 0.0665.
For Nc1nc2ccc(OC(F)(F)F)cc2s1 [Riluzole·HCl], the Z-score was inactive: -1.28.
Nc1nc2ccc(OC(F)(F)F)cc2s1 [Riluzole] was tested, and the Z-score was inactive: -0.564.
C/C1=C/CCC(C)(O)/C=C\C(C(C)C)C(OC(=O)c2ccc(O)cc2)C1 (stereo unspecified) [Feroline] was tested, and the Z-score was inactive: -0.0954.
In the case of COc1ccc2c(c1)c(CC(=O)O)c(C)n2C(=O)c1ccc(Cl)cc1 [Indomethacin], the Z-score is reported as inactive: 0.853.
Cc1nc(C#Cc2cccnc2)cs1 was tested, and the Z-score was inactive: -0.0895.
O=C(O)c1cc(=O)cc(C(=O)O)[nH]1 [Chelidamic Acid] was tested, and the Z-score was inactive: -0.776.
Cc1oc(-c2ccccc2)nc1CCC(=O)c1ccc(CC2SC(=O)NC2=O)cc1 (stereo unspecified) [Darglitazone sodium salt] was tested, and the Z-score was inactive: -0.104.
In the case of O=C(C1CCCCC1)N1CC(=O)N2CCc3ccccc3C2C1 (stereo unspecified) [Praziquantel], the Z-score is reported as inactive: -0.558.
In the case of C(=C\c1ccccc1)/CN1CCN(C(c2ccccc2)c2ccccc2)CC1 [Cinnarizine], the Z-score is reported as inactive: -0.497.
With CC(=O)c1cc([N+](=O)[O-])c(Sc2ccc(F)cc2F)s1 the Z-score was inactive: -1.85.
With C[C@H](NC[C@H](O)CP(=O)(O)Cc1ccccc1)c1ccc(Cl)c(Cl)c1 the Z-score was inactive: -0.0584.
In the case of COc1ccc([C@@H]2Sc3ccccc3N(CCN(C)C)C(=O)[C@@H]2OC(C)=O)cc1 [Diltiazem·HCl], the Z-score is reported as inactive: -0.488.
For COc1ccc([C@@H]2Sc3ccccc3N(CCN(C)C)C(=O)[C@@H]2OC(C)=O)cc1 [Diltiazem hydrochloride], the Z-score was inactive: 0.0703.
